Some test systems named below: 501Mel; A101D; A2058; A375; C32; CBRC008; CBRC013; CBRC014; CBRC016; CBRC017; COLO792; COLO800; COLO829; G361; IPC-298; IST-MEL1; LB2518-MEL; LOXIMVI; MEL-HO.
Holding throughout (experiment): cleaved PARP positive nuclei fraction relative to DMSO control; melanoma cells; higher = more apoptosis
What all share (conditions): library dose: low library concentration; 72 h

Each structure is given as a SMILES string. The list shows a part of the results. Single values are uncertain, as repeats are few or missing.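 The apoptosis fraction was the count of cleaved-PARP antibody-stained nuclei relative to all DNA-stained nuclei, imaged in 1,536-well plates. Screening doses were set so most cells survived, and baseline and induced cleaved-PARP levels vary greatly across cell lines.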

Regarding `CS(=O)(=O)c1ccc(C(=O)Nc2ccc(Cl)c(-c3ccccn3)c2)c(Cl)c1` [vismodegib] + Cc1cc(N2CCOCC2)cc2[nH]c(-c3c(NC[C@@H](O)c4cccc(Cl)c4)cc[nH]c3=O)nc12 [BMS536924] (first compound 1 µM, partner dose 0.2 µM), the “cleaved PARP positive nuclei fraction” value in the experiment on 501Mel stood at 84.3%; in the experiment with A101D, 74.4%; with A2058 it was 121%; with A375, 202%; in the experiment with C32, 65.3%; with CBRC008, 556%. Moreover, the “cleaved PARP positive nuclei fraction” value in the experiment with CBRC013 amounted to 166%; in the experiment on CBRC014 (line from a melanoma biopsy), 91%; with CBRC016 it was 158%; with CBRC017, 101%; in the experiment on COLO792, 109%; in the experiment with COLO800, 216%. The “cleaved PARP positive nuclei fraction” value in the experiment with COLO829 worked out at 33.7%; in the experiment with G361, 120%; in the experiment with IPC-298 it was 25.5%; in the experiment with IST-MEL1 it was 268%; in the experiment on LB2518-MEL it was 220%; in the experiment with LOXIMVI, 139%. Moreover, the “cleaved PARP positive nuclei fraction” value with MEL-HO amounted to 75.5%.

For `CCN(CC)CCNC(=O)c1c(C)[nH]c(/C=C2\C(=O)Nc3ccc(F)cc32)c1C` [sunitinib] + CN(NC(=O)CC(=O)NN(C)C(=S)c1ccccc1)C(=S)c1ccccc1 [STA4783] (first compound 0.4 µM, partner dose 0.006 µM), the “cleaved PARP positive nuclei fraction” value came out at 149% in the experiment with 501Mel; 126% in the experiment on A101D; 84.7% in the experiment with A2058; 339% with A375; 173% with C32; 1520% in the experiment with CBRC008. Moreover, the “cleaved PARP positive nuclei fraction” value in the experiment on CBRC013 (line from a melanoma biopsy) is 304%; with CBRC014 it was 455%; in the experiment with CBRC016, 134%; with CBRC017, 306%; with COLO792, 109%; in the experiment with COLO800, 116%. The “cleaved PARP positive nuclei fraction” value in the experiment with COLO829 was 44.1%; in the experiment with G361 it was 139%; in the experiment on IPC-298, 162%; in the experiment with IST-MEL1, 82.4%; in the experiment with LB2518-MEL it was 139%; in the experiment with LOXIMVI, 40.8%. For the same compound, the “cleaved PARP positive nuclei fraction” value with MEL-HO worked out at 42.6%.

As to `CS(=O)(=O)c1ccc(C(=O)Nc2ccc(Cl)c(-c3ccccn3)c2)c(Cl)c1` [vismodegib] + NCC(=O)Nc1ccc(-n2nc(C(F)(F)F)cc2-c2ccc3c(ccc4ccccc43)c2)cc1 [OSU03012] (first compound 1 µM, partner dose 1 µM), the “cleaved PARP positive nuclei fraction” value with 501Mel worked out at 165%; with A101D it was 43.2%; with A2058 it was 103%; with A375 it was 4700%; in the experiment with C32, 37.5%; in the experiment on CBRC008 (line from a melanoma biopsy), 75.6%. The “cleaved PARP positive nuclei fraction” value in the experiment with CBRC013 is 221%; with CBRC014, 187%; with CBRC016, 33.1%; with CBRC017 it was 118%; with COLO792, 62.6%; with COLO800, 91.9%. The “cleaved PARP positive nuclei fraction” value was 139% in the experiment with COLO829; 127% with G361; 418% in the experiment with IPC-298; 357% in the experiment on IST-MEL1; 40.2% in the experiment with LB2518-MEL; 150% in the experiment on LOXIMVI. In addition, in the experiment with MEL-HO, the “cleaved PARP positive nuclei fraction” value is 191%.

Turning to `COc1ccc(C2=N[C@@H](c3ccc(Cl)cc3)[C@@H](c3ccc(Cl)cc3)N2C(=O)N2CCNC(=O)C2)c(OC(C)C)c1` [Nutlin-3] + Cc1ccc(NC(=O)c2cccc(N(C)C)c2)cc1NC(=O)c1ccc(O)cc1 [ZM336372] (first compound 0.1 µM, partner dose 2 µM), the “cleaved PARP positive nuclei fraction” value in the experiment with 501Mel worked out at 96%; with A101D, 41.1%; in the experiment with A2058 it was 198%; in the experiment with A375, 107%; in the experiment on C32, 215%; with CBRC008, 93.9%. The “cleaved PARP positive nuclei fraction” value in the experiment on CBRC013 was found to be 170%; with CBRC014, 107%; in the experiment on CBRC016 (line from a melanoma biopsy) it was 111%; in the experiment on CBRC017 (line from a melanoma biopsy), 165%; in the experiment on COLO792, 18.9%; with COLO800, 93%. Besides, the “cleaved PARP positive nuclei fraction” value in the experiment with COLO829 is 82.9%; with G361, 39.6%; in the experiment with IPC-298, 102%; with IST-MEL1 it was 95.3%; in the experiment on LB2518-MEL, 213%; in the experiment with LOXIMVI, 62.5%. Further, the “cleaved PARP positive nuclei fraction” value in the experiment on MEL-HO came to 71.1%.

As for `COc1ccc(C2=N[C@@H](c3ccc(Cl)cc3)[C@@H](c3ccc(Cl)cc3)N2C(=O)N2CCNC(=O)C2)c(OC(C)C)c1` [Nutlin-3] + C=CCn1c(=O)c2cnc(Nc3ccc(N4CCN(C)CC4)cc3)nc2n1-c1cccc(C(C)(C)O)n1 [MK1775] (first compound 0.1 µM, partner dose 0.02 µM), the “cleaved PARP positive nuclei fraction” value amounted to 100% with 501Mel; 52.6% in the experiment on A101D; 93.9% in the experiment with A2058; 218% in the experiment with A375; 125% in the experiment with C32; 51.3% in the experiment with CBRC008. Further, the “cleaved PARP positive nuclei fraction” value was 118% in the experiment with CBRC013; 102% with CBRC014; 77.7% in the experiment on CBRC016; 99.9% in the experiment on CBRC017; 78.2% in the experiment on COLO792; 110% in the experiment on COLO800. The “cleaved PARP positive nuclei fraction” value in the experiment with COLO829 was 111%; with G361 it was 68.6%; with IPC-298, 138%; in the experiment on IST-MEL1, 156%; in the experiment with LB2518-MEL, 111%; with LOXIMVI, 53.9%. The “cleaved PARP positive nuclei fraction” value in the experiment with MEL-HO amounted to 66.6%.

`COc1ccc(C2=N[C@@H](c3ccc(Cl)cc3)[C@@H](c3ccc(Cl)cc3)N2C(=O)N2CCNC(=O)C2)c(OC(C)C)c1` [Nutlin-3] + O=C(Nc1cccc(Cl)c1)Nc1ncc(CCNc2ncnc3ccsc23)s1 [SNS314] (first compound 0.1 µM, partner dose 0.0008 µM): the “cleaved PARP positive nuclei fraction” value in the experiment on 501Mel was 84.8%; with A101D it was 97.8%; with A2058 it was 47.7%; with A375, 107%; in the experiment with C32 it was 222%; in the experiment on CBRC008 it was 78.1%. Also, the “cleaved PARP positive nuclei fraction” value came out at 167% in the experiment with CBRC013; 88.5% with CBRC014; 80.8% in the experiment on CBRC016; 117% with CBRC017; 27.3% in the experiment with COLO792; 37.6% with COLO800. The “cleaved PARP positive nuclei fraction” value with COLO829 was found to be 98%; in the experiment with G361, 63.8%; with IPC-298, 90.6%; in the experiment with IST-MEL1, 194%; in the experiment with LB2518-MEL, 87.6%; in the experiment on LOXIMVI it was 497%. For the same compound, the “cleaved PARP positive nuclei fraction” value in the experiment with MEL-HO was 135%.

For the compound `Cn1sc(=O)n(Cc2ccccc2)c1=O` + O=C(Nc1cccc(Cl)c1)Nc1ncc(CCNc2ncnc3ccsc23)s1 [SNS314] (first compound 0.4 µM, partner dose 0.0008 µM), the “cleaved PARP positive nuclei fraction” value in the experiment on 501Mel is 152%; in the experiment on A101D, 19.3%; in the experiment with A2058 it was 104%; in the experiment with A375 it was 96.4%; with C32 it was 44.8%; with CBRC008, 133%. Also, the “cleaved PARP positive nuclei fraction” value is 109% in the experiment on CBRC013; 89.8% in the experiment on CBRC014; 107% with CBRC016; 82.3% with CBRC017; 130% in the experiment on COLO792; 60.8% in the experiment with COLO800. For the same compound, the “cleaved PARP positive nuclei fraction” value in the experiment with COLO829 came to 155%; in the experiment with G361 it was 136%; with IPC-298, 42%; with IST-MEL1, 182%; in the experiment with LB2518-MEL, 143%; in the experiment with LOXIMVI, 44.1%. Besides, the “cleaved PARP positive nuclei fraction” value in the experiment with MEL-HO is 148%.

(Values after the supplement of paper PMC4604168 (melanoma cell lines).)
